Reference: patent US6730293B1 (CellGate, Inc., priority 1999, dated 2004)

Assay: general procedure: Fmoc solid-phase peptide synthesis; Rink amide resin; HATU
Settings: conjugation step

In the case of Fl-ahx-RRRRR, the conjugation yield is reported as 29% isolated yield.
